Assay results: patent publication US5612174A, “Photographic yellow dye-forming couplers and silver halide color photographic materials containing the same” (Fuji Photo Film Co., Ltd., priority 1994, dated 1997)

Columns and labels:
[1] = Color image fastness to light (retentiveness of color image at initial density 1.5); conditions: fluorescent lamp 80,000 luxes, 14 days
Procedure: (§1) Samples Nos. 401 to 429 were prepared in the same manner as in preparation of sample No. 204, except that 0.20 g/m^2 of the amide compound shown in Table C below was added to the first layer. These samples were exposed to light of a fluorescent lamp of 80,000 luxes for 14 days, and the retentiveness of the color image at the initial density of 1.5 in each sample was obtained. In addition, the samples were stored at 80° C. and 70% RH for 20 days, and the retentiveness of the color image at the initial density of 1.5 in each sample was also obtained.

[2] = Color image fastness to heat and moisture at 80° C., 70% RH (retentiveness of color image at initial density 1.5); conditions: 20 days
Procedure: as §1

[3] = no amide compound, 80° C., 70% RH
[4] = amide compound S-1 (0.20 g/m^2)
[5] = amide compound S-2 (0.20 g/m^2)
[6] = amide compound S-4 (0.20 g/m^2)
[7] = amide compound S-5 (0.20 g/m^2)
[8] = amide compound S-9 (0.20 g/m^2)
[9] = amide compound S-18 (0.20 g/m^2)

Row | SMILES | retentiveness of the color image, Xe ([1]; no amide compound) | retentiveness of the color image, 80° C., 70% RH [2, 3] | retentiveness of the color image, Xe [1, 4] | retentiveness of the color image, Xe [1, 5] | retentiveness of the color image, Xe [1, 6] | retentiveness of the color image, Xe [1, 7] | retentiveness of the color image, Xe [1, 8] | retentiveness of the color image, Xe [1, 9] | retentiveness of the color image, 80° C., 70% RH [2, 4] | retentiveness of the color image, 80° C., 70% RH [2, 5] | retentiveness of the color image, 80° C., 70% RH [2, 6] | retentiveness of the color image, 80° C., 70% RH [2, 7] | retentiveness of the color image, 80° C., 70% RH [2, 8] | retentiveness of the color image, 80° C., 70% RH [2, 9]
1 | CCCCCCCCCCCCCCCCCC(=O)Nc1ccc(Cl)c(NC(=O)C(C(=O)C(C)(C)C)N2C(=O)NC(C)(C)C2=O)c1 (stereo not shown) [RY-2, reference compound] | 65 | 67 |  |  |  |  |  |  |  |  |  |  |  | 
2 | CCCCCCCCC=CCCCCCCCC(=O)Nc1ccc(Cl)c(NC(=O)C(C(=O)C(C)(C)C)N2C(=O)NC(C)(C)C2=O)c1 (stereo not shown) [Y-1] | 75 | 77 | 88 | 85 | 87 | 85 | 84 | 83 | 89 | 86 | 88 | 86 | 85 | 84
3 | CCCCCC=CCC=CCCCCCCCC(=O)Nc1ccc(Cl)c(NC(=O)C(C(=O)C(C)(C)C)N2C(=O)NC(C)(C)C2=O)c1 (stereo not shown) [Y-2] | 74 | 76 | 87 |  | 86 |  |  |  | 87 |  | 87 |  |  | 
4 | CCC=CCC=CCC=CCCCCCCCC(=O)Nc1ccc(Cl)c(NC(=O)C(C(=O)C(C)(C)C)N2C(=O)NC(C)(C)C2=O)c1 (stereo not shown) [Y-3] | 74 | 75 | 87 |  | 86 |  |  |  | 86 |  | 85 |  |  | 
5 | CCCCCCC(O)CC=CCCCCCCCC(=O)Nc1ccc(Cl)c(NC(=O)C(C(=O)C(C)(C)C)N2C(=O)NC(C)(C)C2=O)c1 (stereo not shown) [Y-4] | 73 | 75 | 86 |  | 85 |  |  |  | 87 |  | 86 |  |  | 
6 | CCCCCCCCC=CCCCCCCCC(=O)Nc1ccc(OC)c(NC(=O)C(C(=O)C(C)(C)C)N2C(=O)NC(C)(C)C2=O)c1 (stereo not shown) [Y-13] | 75 | 76 | 86 |  | 85 |  |  |  | 85 |  | 84 |  |  | 
